Data taken from ChEMBL document CHEMBL3988442, “University of Dundee, Small-Polar-MMV Screening Library” (2021).

A: 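Phenotypic screen: M. tuberculosis growth, cholesterol and DPPC medium, 4 days; the read-out is not stated. Tested at 500 µM. Higher reads as more growth inhibition (inferred: compounds with an IC50 in retests scored well above the rest). Size under these conditions: about 18,000 compounds, about 900 of them at 50% or above in at least one test.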
B: 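Phenotypic screen: M. tuberculosis growth, glucose 7H9 medium, 3 days; the read-out is not stated. Compounds at 500 µM. Higher reads as more growth inhibition (inferred: compounds with an IC50 in retests scored well above the rest). About 18,000 compounds were tested under these conditions; 7.9% (about 1,400) showed 50% or more at least once.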

Values are the deposited “Percent Effect”, in %.
The controls that fix the scale are not given in the record; negative values are as filed.
The compounds are a random part of those screened.

| compound | A | B |
|---|---|---|
| `CCc1cccc2c1N(C(=O)CNC)CC2` | 34.99 | 50.51 |
| `O=C(NCc1nc2c(s1)CCCC2)C1CCOC1` (stereo not given) | 16.54 | 27.52 |
| `O=C(COc1ccccc1)Nn1cnnc1` | 12.64 | 10.6 |
| `O=C(NCc1nnc2n1CCC2)Nc1cccc(F)c1` | -8.697 | -1.121 |
| `CC(C)(C)OC(=O)N1CCCN(CCCO)CC1` | 11.72 | 2.531 |
| `CC(C)C(=O)NCCNC(=O)C(C)(C)C` | -7.683 | 3.386 |
| `CCCn1nnnc1Cn1ccccc1=O` | -5.031 | -12.66 |
| `CCOc1ccc(S(=O)(=O)NC(C)C(N)=O)cc1` (stereo not given) | 0.5552 | -4.003 |
| `CN(C)c1ncc(CO)n1C` | 6.111 | 8.126 |
| `COc1ccc(C(=O)N2CCCCC2C(N)=O)cc1F` (stereo not given) | -13.42 | -9.267 |
| `CC1(C)CNC(=O)NC1=O` | 3.367 | 5.501 |
| `Cc1c(NCc2ccccc2O)cnn1C` | 19.37 | 29.91 |
| `CCn1nc(CC(C)C)cc1C(=O)N1CCC(N)C1` (stereo not given) | 12.02 | 27.56 |
| `CN1CCC[C@@H]1CCN(CCO)Cc1ccco1` | -14.87 | -12.6 |
| `CN(C)C(=O)C1CCN(Cc2ccccc2F)CC1` | 8.287 | 5.872 |
| `COCCNC(=O)Cc1cnn(-c2ccccc2)c1` | 11.15 | 25.69 |
| `COc1ccc(C(=O)N2CCC(=O)CC2)cc1Br` | 10.66 | 28.73 |
| `CCNCC(=O)NCCc1c[nH]c2ccccc12` | 8.462 | 30.41 |
| `COC(=O)C(NC(=O)C1=NN(C)C(=O)CC1)C(C)(C)C` (stereo not given) | 8.779 | 9.527 |
| `NC1CCN(C2COC2)CC1` | -13.38 | -7.696 |
| `CC(C#N)(NC(=O)CSc1nnc(N)s1)C1CC1` (stereo not given) | 0.7944 | 1.459 |
| `NCc1ccc2c(c1)OCCCO2` | 23.4 | 30.1 |
| `NC(=O)c1ccc(N2CCN(CCCO)CC2)cc1` | 4.175 | 5.862 |
| `Cc1cc(=O)n(CCN2CCC[C@@H]2CO)c(=O)[nH]1` | 2.724 | 13.66 |
| `COC(=O)c1cccc(OCC(O)C(F)(F)F)c1` (stereo not given) | 55.85 | 36.08 |
| `CCn1c(CN(C)CC(=O)O)nnc1[C@H]1C[C@@H](N)C1` | -1.764 | 7.247 |
| `COc1ccncc1NC(=O)c1ccc(Br)o1` | -19.11 | -17.7 |
| `N#Cc1ccc(C2NCCS2)cc1` (stereo not given) | 7.475 | 19.43 |
| `C/N=C1\SC(CC(=O)Nc2cccc(Cl)c2)C(=O)N1C` (stereo not given) | -15.33 | -13.46 |
| `Cc1cc(C(=O)N2CC[C@H]3CC[C@@H](C2)N3)nc(C)n1` | -15.73 | 21.83 |
| `CCNC(=O)COC(=O)c1cc(O)nc2ccccc12` | -0.6227 | 4.399 |
| `Cc1ccc(C2CCCCCN2CC(=O)NC(N)=O)o1` (stereo not given) | -10.67 | -6.322 |
| `O=C(NC1CCOCC1)c1cn2ccsc2n1` | -8.038 | -2.855 |
| `COc1ccc(CCCC(=O)N[C@@H]2CC[C@@H](N)C2)cc1` | 29.58 | 38.17 |
| `c1cnc2cc(-c3nc(C4CCOC4)no3)nn2c1` (stereo not given) | 5.698 | 2.534 |
| `Cc1cc(C(=O)N(C)Cc2ccc3c(c2)OCO3)n[nH]1` | 22.55 | 48.63 |
| `CCC(CC)(CCO)CNC(=O)c1cncc(C)c1` | 3.14 | 21.78 |
| `CCN(Cc1[nH]cnc1C)C1CCS(=O)(=O)C1` (stereo not given) | 10.91 | 6.078 |
| `NC(=O)COC(=O)c1cnn(-c2cccc(Br)c2)c1` | -0.2219 | -6.25 |
| `COc1ccc([C@@H]2C[C@H]2N)cc1` | 15.2 | 32.31 |
| `NC(CC(=O)N1CCSCC1)c1ccccc1` (stereo not given) | -1.328 | 12.42 |
| `OCCNCc1nccs1` | -1.082 | -4.349 |
| `CNC(=O)CN(C)C1CCC(OC)CC1` (stereo not given) | 6.806 | 21.17 |
| `N#Cc1ccc(NCC2(O)CCOCC2)cc1Cl` | 16.44 | 38.26 |
| `CCc1nnc(CNC(=O)c2ccc3c(c2)OCO3)s1` | 6.913 | 9.705 |
| `Cn1ccnc1SCCNC(=O)c1c[nH]c(=O)[nH]1` | -14.91 | 15.36 |
| `CCOC(=O)c1cn[nH]c1S(=O)(=O)N1CCCC1` | -15.5 | 4.883 |
| `Cc1nsc(N2CCN(CCn3cncn3)CC2)n1` | -15.84 | 0.121 |
| `CN(C)CC1CCCN1C(=O)NC1CC1` (stereo not given) | 5.693 | 21.45 |
| `O=C(c1cc(-c2ccco2)[nH]n1)N1CCOCC1` | -20.65 | -0.5469 |
| `CC1(C)CNC(=O)c2nc(CCN3CCCC3)[nH]c2C1` | -7.879 | 21.13 |
| `CN1CCN(C(=O)Cn2ccc3ccc(Br)cc32)CC1` | 75.88 | 27.07 |
| `CSc1ccccc1C(=O)NCCN(C)C` | 9.194 | 3.954 |
| `NC(c1ccccc1)c1ccco1` (stereo not given) | 20.71 | 20.58 |
| `CCNC(=O)CNc1nccc(OC)n1` | 0.546 | 0.8061 |

The last 4 entries again:

Result for CN1CCN(C(=O)Cn2ccc3ccc(Br)cc32)CC1 was A: 75.88%; B: 27.07%.
Result for CSc1ccccc1C(=O)NCCN(C)C was A: 9.194%; B: 3.954%.
Result for NC(c1ccccc1)c1ccco1 (stereo not given) was A: 20.71%; B: 20.58%.
Result for CCNC(=O)CNc1nccc(OC)n1 was A: 0.546%; B: 0.8061%.